PubChem BioAssay AID1259259 | Sanger Institute | 2017
The whole screen tested 794 reagents; shown is an unselected part. 9 of them (1.1%) were called active. 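Calls rest on knock-down alone, not drug synergy; viability values seem capped at 1.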 Unmarked entries are inactive. Not given: the amount of reagent, the time to read-out.

Aim: 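Kinome siRNA search for kinases essential alone or combined with trametinib, cetuximab or BYL719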 (primary screen)
Cell system: SW1463 human colorectal cancer cells
Knock-down reagent: siRNA pool against human genes
Conditions: DMSO vehicle, or one anchor drug: BYL719 at 1 µM, cetuximab at 5 µg/ml, or trametinib at 10 nM
Measurement: 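Viability relative to control pool 2 (non-targeting) averaged over replicates, robust z-score for knock-down with no drug, and for each anchor drug the mean synergy score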
Scale: robust z-score, knock-down alone: higher = more viable cells after knock-down; viability, knock-down alone: higher = more viable cells; synergy score with BYL719 and synergy score with cetuximab and synergy score with trametinib: higher = stronger synergy (synthetic lethal) with drug
Active means: 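Knock-down called essential when its robust z-score without drug falls below -3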
Calls: active = essential: viability loss from knock-down alone; inactive = no change from knock-down alone

Gene,"robust z-score, knock-down alone","viability, knock-down alone (fraction of control)",synergy score with BYL719,synergy score with cetuximab,synergy score with trametinib
JAK3,1.13,1,0.136,0.0317,0.111
BRAF,-0.665,0.885,0.122,0.0292,0.121
PRKD2,-0.679,0.884,-0.0586,0.133,0.119
CLSPN,-0.0937,0.922,-0.0784,-0.103,-0.046
EPHB1,-0.0503,0.924,-0.0186,-0.0523,-0.0803
JAK1,-0.644,0.886,0.0121,0.0959,-0.0204
MAP3K13,0.013,0.928,0.0271,-0.0968,0.0191

Continued (2 carried over from the part before).
Gene,"robust z-score, knock-down alone","viability, knock-down alone (fraction of control)",synergy score with BYL719,synergy score with cetuximab,synergy score with trametinib
JAK1,-0.644,0.886,0.0121,0.0959,-0.0204
MAP3K13,0.013,0.928,0.0271,-0.0968,0.0191
NUAK2,-0.308,0.908,-0.00344,0.0357,0.0159
CDK5,0.347,0.95,-0.00681,0.161,0.124
ITPKC,-0.715,0.882,0.15,0.228,0.173
WIPF1,1.02,0.993,-0.00528,0.0296,0.0245
DSTYK,0.58,0.965,0.0121,0.0219,0.262
DAPK3,-0.241,0.912,0.218,0.217,0.135
MAPK11,1.03,0.994,-0.00632,0.173,-0.0163
PRKAR2B,-1.74,0.816,0.0235,0.0429,0.0882
PIK3CB,-0.615,0.888,0.00748,0.165,0.0561
SOX9,0.204,0.941,0.0106,0.00748,-0.09
TNK2,-0.239,0.912,-0.0308,0.0781,0.0467
CAMK2B,0.126,0.936,0.036,-0.0897,0.0172
CAMK2N1,-2.56,0.763,0.0998,-0.125,0.183
